Experimental data as given in PubChem BioAssay AID1347431 (National Center for Advancing Translational Sciences (NCATS), 2020).
Among all 1,200 compounds or so, fewer than 10 were called active. Calls follow the shape of the dose curve; as a rule, active = well fitted curve in the direction sought with a large enough effect; inconclusive = small, poorly fitted or top-dose-only effect, or another doubt; inactive = no such curve, though single readings can be large or run the other way. The list shows a part of the results.

Assay: Confirmatory qHTS assay for inhibitors of Activation Induced Cytidine Deaminase (AID): UDG signals; also: 0% is about no effect
Conditions: UDG coupled enzyme activity counter-screen; at 115 µM (top of the series) unless noted
Procedure, shortened: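 UDG readout, a counterscreen: AID (1 uM, 4/3x) plus UDG (2 U/mL, 4/3x) preincubated 10 min with compound (7.32 nM - 114 uM final), then 4 h with DJC20/DJC23 substrates at room temperature; NaOH added, fluorescence read at 560/665 nm.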

Structure (SMILES)	activity change, negative = inhibition
O=C(NCCc1nc2ccccc2n1Cc1ccc(Cl)cc1Cl)c1ccco1	inactive: -8.16%
Cc1cccc(-n2cnc3cc(C(=O)NCc4ccccc4Cl)ccc32)c1	inactive: 3.52%
COc1ccc(-c2nn(C)c3sc(C(=O)NCCN(C)C)cc23)cc1OC	inactive: -7.31%
Cc1cccn2c(=O)cc(COc3cccc(NC(=O)COc4ccc(F)cc4)c3)nc12	inactive: 5.69%
CCCc1nc2ccccc2n2c(-c3ccccc3)c3c(=O)n(C)c(=O)n(C)c3c12	inactive: -2.27%
Fc1ccccc1Cn1c(-c2ccccc2)nc2ccccc21	inactive: -13.4%
Cc1ccc2c(c1)C(c1ccc(F)cc1)N(C(=O)c1ccc(OC(C)C)cc1)CC(=O)N2 (stereo not given)	inactive: -1.56%
Cc1ccc(C)c(N2CCN(C(=O)c3cc4c(=O)n(Cc5cccs5)ccc4nc3C)CC2)c1	inactive: -4.74%
Cc1ccc(CSC2=Nc3ccccc3C3=NC(CCC(=O)NCc4cccs4)C(=O)N23)cc1 (stereo not given)	inactive: 3.12%
CCOc1ccccc1N(CC)C(=O)c1cc2c(=O)n(CC)c3ccccc3c2s1	inactive: -9.39%
COc1cc(NC(=O)CSc2nc3nc(C)c(Cc4ccccc4)c(C)n3n2)cc(OC)c1OC	inactive: -4.7%
CCCCC(CC)Cn1c(Oc2ccccc2)nc2c1c(=O)n(C)c(=O)n2C (stereo not given)	inactive: 3.18%
CCc1ccc(CNC(=O)c2cnc3sc(N(CC)CC)nn3c2=O)cc1	inactive: -5.38%
Cc1ccc2c(C)c(C(=O)NCC(c3ccc(Cl)cc3)N3CCOCC3)oc2c1 (stereo not given)	inactive: -1.8%
Cc1ccc(Cl)cc1NC(=O)Nc1cn(CC(C)C)c(=O)c2ccccc12	inactive: -2.69%
Cc1ccccc1C(=O)Nc1ccc(C(=O)OCc2cc(=O)n3c4c(sc3n2)CCCC4)cc1	inactive: -1.88%
Cc1ccc(Cl)cc1N(C)C(=O)c1cc2ccc3cccnc3c2[nH]1	inactive: 0.172%
CN(Cc1ccco1)C(=O)c1ccc2c(c1)N(Cc1ccccc1F)C(=O)c1ccccc1S2	inactive: -0.417%
CCC1CN(C(=O)N2CCC(C(=O)N3CCN(c4cccc(C)c4C)CC3)CC2)c2ccccc2O1 (stereo not given)	inactive: -8.39%
COc1ccc(N2CCN(C(=O)c3cc4c(-c5ccccc5F)nn(C)c4s3)CC2)cc1	inactive: -2.54%
CCOc1ccc(CCNC(=O)c2ccc3c(c2)c(C)c(C)n3C)cc1	inactive: 6.28%
Cc1[nH]n2c(=O)cc(-c3ccccc3Cl)nc2c1-c1ccccc1	inactive: 15.7%
CCn1cc(S(=O)(=O)c2ccccc2)c(=O)c2cc(F)c(N3CCCCCC3)cc21	inactive: -13.5%
Cc1ccc2c(c1)C(c1ccccc1)N(C(=O)COc1ccc(Cl)cc1Cl)CC(=O)N2 (stereo not given)	inactive: -12.5%
CCN(CC)CCCC(C)Nc1c2ccc(Cl)cc2nc2ccc(OC)cc12 (stereo not given)	inactive: -6.08%
CCc1cccc(-n2c(C)nc3c(cnn3-c3ccc(Cl)cc3)c2=O)c1	inactive: 2.34%
Cc1ccc(-c2cc3ncc(C(=O)c4cc([N+](=O)[O-])ccc4O)cn3n2)cc1	inactive: -1.25%

Structure (SMILES)	activity change, negative = inhibition
CCCN(CCC)C(=O)Cn1c(=O)n(Cc2ccc(C(=O)NCCc3ccc(OC)c(OC)c3)cc2)c(=O)c2ccccc21	inactive: 2.87%
CC1CCCCN1C(=O)c1ccc2c(c1)N(Cc1ccc(Cl)cc1)C(=O)c1ccccc1S2=O (stereo not given)	inactive: 0.84%
COc1cc2c(=O)c(C(=O)c3ccc(C)c(C)c3)cn(Cc3ccc(F)cc3)c2cc1OC	inactive: -7.32%
CCc1nn2c(-c3ccccc3OC)ccnc2c1-c1ccccc1	inactive: -8.21%
Nc1c(S(=O)(=O)O)cc(Nc2ccc(Nc3nc(Cl)nc(Nc4ccc(S(=O)(=O)O)cc4)n3)c(S(=O)(=O)O)c2)c2c1C(=O)c1ccccc1C2=O	inactive: -6.96%
Cc1ccc(C(=O)c2cn(Cc3ccccc3)c3nc(C)ccc3c2=O)cc1	inactive: -10.6%
CC1CCCCN1C(=O)CSc1nc2ccccc2nc1Cc1ccccc1 (stereo not given)	inactive: -1.92%
CCCN(CCC)CCCNC(=O)c1cc2c(-c3ccc(Cl)cc3)nn(C)c2s1	inactive: -16.3%
CC(CNC(=O)c1sc2ncccc2c1-n1cccc1)c1ccccc1 (stereo not given)	inactive: -6.13%
CCOc1ccc(N(CC)S(=O)(=O)N2CCCC(C(=O)NCCc3ccccc3OC)C2)cc1 (stereo not given)	inactive: -6.4%
Cc1cccc(N2CCN(C(=O)c3ccc4c(c3)c(C)c(C)n4C)CC2C)c1 (stereo not given)	inactive: -4.59%
COc1ccccc1CN1CCC(CNC(=O)c2cnn(-c3ccc(C)c(C)c3)c2C2CCN(C(=O)OC(C)(C)C)CC2)CC1	inactive: 9.38%
COc1ccc(-c2nc3c(c(SCC(=O)N4CCCCC4)n2)Cc2c(CO)cnc(C)c2O3)cc1	inactive: -2.63%
CCc1ccc2oc(-c3cc(NC(=O)c4cc([N+](=O)[O-])ccc4N4CCOCC4)ccc3Cl)nc2c1	inactive: -8.12%
O=C(NCc1cccs1)c1ccc(Cn2c(SCc3ccc(F)cc3)nc3cccnc32)cc1	inactive: -12.9%
Cc1ccc(C)c(N2CCN(C(=O)c3cc(S(=O)(=O)N4CCCCCC4)cn3C)CC2)c1	inactive: -10.3%
CCOC(=O)c1cc(-c2ccc(OC)cc2)n(CCC(=O)Nc2nc3ccc(OCC)cc3s2)c1C	inactive: -0.904%
CCCn1cc(S(=O)(=O)c2ccccc2)c(=O)c2cc(F)c(N3CCCCC3)cc21	inactive: 1.12%
CCC(C)n1c(=N)c(C(=O)NCc2ccccc2)cc2c(=O)n3cc(C)ccc3nc21 (stereo not given)	inactive: -13%
Cc1ccc(Cc2c(C)nc3nc(SCC(=O)NC(C)c4ccccc4)nn3c2C)cc1 (stereo not given)	inactive: -5.73%
COc1ccccc1NC(=O)CSc1nnc2c3ccccc3n(C(C)C)c2n1	inactive: -6.75%
COc1ccccc1Nc1nn2c(=O)c3ccc(C(=O)N4CCC(C)CC4)cc3nc2s1	inactive: -0.185%
CCN(C(=O)CCc1nc(-c2ccc(C)cc2)no1)c1cc(C)ccc1C	inactive: -8.41%
CCCCOc1ccc(C2=NC(c3ccncc3)=Nc3ccc(Br)cc3N2)cc1	inactive: -4.6%
CCn1cc(S(=O)(=O)c2ccc(OC)cc2)c(=O)c2cc(F)c(N3CCC(C)CC3)cc21	inactive: -7.33%
Cc1ccc(CN(Cc2ccco2)C(=O)COc2c(C)cc(C)cc2C)cc1	inactive: -3.72%
COc1cc2c(=O)c(C(=O)c3ccc(C)c(C)c3)cn(Cc3ccccc3)c2cc1OC	inactive: 3.4%

Structure (SMILES)	activity change, negative = inhibition
N#C/C(=C\c1ccc(-c2ccccc2C(=O)O)o1)c1nc2ccccc2[nH]1	inactive: -2.29%
Cc1cc(-c2ccc(C)c(S(=O)(=O)N3CCCC(C)C3)c2)on1 (stereo not given)	inactive: -7.21%
Cc1ccccc1CN1CCC(CNc2ncnc3onc(-c4ccc(Cl)cc4)c23)CC1	inactive: 2.19%
COc1cc(NC(=O)Cn2cc(S(=O)(=O)N3CCC(C)CC3)c3ccccc3c2=O)cc(OC)c1OC	inactive: -13.2%
Cc1ccc(C(=O)c2cn(CC(=O)Nc3ccc4c(c3)OCCO4)c3nc(C)ccc3c2=O)cc1	inactive: -1.14%
CCc1ccc(OCC2c3cc(OC)c(OC)cc3CCN2C(=O)Cc2ccc(OC)c(OC)c2)cc1 (stereo not given)	inactive: -6.81%
Cc1cccc(N2CCN(C(=O)c3c4c(nc5ccccc35)C(=O)N(C3CCCCC3)C4)CC2)c1C	inactive: -10.3%
CN(C)S(=O)(=O)N(CC(=O)NCCSc1ccc(Cl)cc1)c1ccccc1	inactive: -6.14%
Cn1c2ccccc2c2c(C(=O)N3CCN(c4cccc(C(F)(F)F)c4)CC3)cn(C3CCCCC3)c(=O)c21	inactive: -7.55%
Cc1cccc(Cn2nnc3c(=O)[nH]c(C4CCCN(C(=O)c5ccc(C(C)(C)C)cc5)C4)nc32)c1 (stereo not given)	inactive: -5.24%
COc1ccccc1C(=O)NCCc1csc(-c2ccc(C(F)(F)F)cc2)n1	inactive: -1.07%
CCCCN(C)C(=O)c1ccc2c(c1)N(Cc1cccc(Cl)c1)C(=O)c1ccccc1S2=O (stereo not given)	inactive: -11%
Cc1cccc(NC(=O)CCn2nc(-c3ccccc3)c3ccccc3c2=O)c1	inactive: -11%
CCOC(=O)c1cc(-c2ccc(C)cc2)n(CCC(=O)Nc2ccc(OC)c(OC)c2)c1C	inactive: 1.84%
O=C(CCn1c(=O)c2cccn2c2cccnc21)N1CCN(c2cccc(Cl)c2)CC1	inactive: -5.29%
CCc1nn2c(=O)cc(COC(=O)C(c3ccccc3)c3ccccc3)nc2s1	inactive: 6.6%
COc1ccccc1CNC(=O)c1cnn2c(C)c(Cc3ccc(F)cc3)c(C)nc12	inactive: -5.21%
Fc1ccc(CNc2nc(-c3ccccc3)cc(C(F)(F)F)n2)cc1	inactive: -4.61%
Cc1ccc(Cl)cc1N1CCN(C(=O)c2ccc(C)c(-n3c(C)nc4cccnc43)c2)CC1	inactive: -4.12%
CCc1nc2ccc(C(=O)N3CCN(c4ccc(Cl)cc4)CC3)cc2nc1CC	inactive: -11.5%
Cc1nnc(SCC(=O)NCc2ccccc2F)c2nn(-c3ccc(Cl)cc3)c(C)c12	inactive: 4.35%
COCCc1nn2c(=O)cc(COC(=O)c3ccc(C(C)(C)C)cc3)nc2s1	inactive: 6.29%
O=C(c1ccc2c(Cl)c3c(nc2c1)CCCC3)N1CCN(c2cccc(Cl)c2)CC1	inactive: 3.09%
Cc1ccc(-n2ncc(C(=O)N3CCN(Cc4ccccc4)CC3)c2C2CCN(C(=O)OC(C)(C)C)CC2)c(C)c1	inactive: -9.77%
COc1ccc(CCNC(=O)CS(=O)Cc2nc(-c3ccc(C)cc3)oc2C)c(OC)c1 (stereo not given)	inactive: -3.01%
Cc1ccc(Cl)cc1N1CCN(C(=O)Cn2cnc3nc4c(cc3c2=O)CCCC4)CC1	inactive: -9.53%

Some of the entries so far, field by field:
CCCCN(C)C(=O)c1ccc2c(c1)N(Cc1cccc(Cl)c1)C(=O)c1ccccc1S2=O (stereo not given)
  activity change, negative = inhibition: inactive: -11%
Cc1cccc(NC(=O)CCn2nc(-c3ccccc3)c3ccccc3c2=O)c1
  activity change, negative = inhibition: inactive: -11%
CCOC(=O)c1cc(-c2ccc(C)cc2)n(CCC(=O)Nc2ccc(OC)c(OC)c2)c1C
  activity change, negative = inhibition: inactive: 1.84%
